PubChem BioAssay AID652272 | Drosophila RNAi Screening Center, 2013

Test: 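Genome-wide knock-down search for components of Hedgehog signalling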 (primary screen)
System: Drosophila clone 8 (Cl8) cells
Reagent: long dsRNA against Drosophila genes
Measured: 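Plate reader light from a firefly reporter under a ptc promoter fragment that responds to Hedgehog, with Renilla light as transfection reference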
Reading the numbers: firefly Hh reporter signal: higher = more ptc reporter light; Renilla reference signal: higher = more Renilla control light
Call rule: 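Called a hit if the two-replicate mean z-score lies below -2 or above +3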
Calls: active = hit: reporter lowered or raised; inactive = not a hit
The screen tested about 21,000 reagents; shown is an unselected part of those that have a named target and a result. Of all reagents, 503 (2.4%) got an active call. 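Raw plate light values, not normalised; calls rest on replicate z-scores that were not deposited; hits include reporter decreases as well as increases.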 A number with no mark means an inactive call. A plus sign joins genes that one reagent is predicted to hit. Reagent sequences are not shown. Not given: the amount of reagent, the time to read-out.

| predicted target | DRSC id | firefly Hh reporter signal, replicate 1 | firefly Hh reporter signal, replicate 2 | firefly Hh reporter signal, replicate 3 | Renilla reference signal, replicate 1 | Renilla reference signal, replicate 2 |
| --- | --- | --- | --- | --- | --- | --- |
| ApepP (Aminopeptidase P) | DRSC01866 | 76448 | 61826 | – | 2731 | 2278 |
| H2.0 (Homeodomain protein 2.0) | DRSC03340 | 1.89e5 | 4.97e5 | 1.20e5 | 4724 | 26979 |
| CG4734 | DRSC06885 | 1.53e5 | 70859 | – | 3924 | 5479 |
| CG5506 | DRSC10511 | 1.05e5 | – | – | 4596 | 2881 |
| CG3734 | DRSC15509 | 5.28e5 | 44972 | – | 27850 | 1303 |
| Ptp99A (Protein tyrosine phosphatase 99A) | DRSC13933 | 2129 | 6.38e5 | 2.79e5 | 705 | 4520 |
| Ptp99A (Protein tyrosine phosphatase 99A) | DRSC13939 | 55536 | 3.13e5 | – | 13962 | 7495 |
| Ptp99A (Protein tyrosine phosphatase 99A) | DRSC14319 | 69298 | 90999 | – | 2230 | 2640 |
| Ptp99A (Protein tyrosine phosphatase 99A) | DRSC14320 | 1.01e5 | 90274 | – | 2475 | 2133 |
| Ptp99A (Protein tyrosine phosphatase 99A) | DRSC16803 | 1.02e5 | 1.15e5 | – | 2589 | 2370 |
| CG43052 | DRSC03059 | 1.78e5 | 63347 | – | 4472 | 6050 |
| E2f1 (E2F transcription factor 1) | DRSC16655 | 7.69e5 | 1.67e5 | – | 36579 | 2361 |
| ppan (peter pan) | DRSC17030 | 4.28e5 (active) | 88928 | – | 35184 | 433 |
| CG33178 | DRSC19950 | 70145 | 2.35e5 | – | 1156 | 10080 |
| mio (missing oocyte) | DRSC00692 | 1.39e5 | 78917 | – | 5072 | 2912 |
| Cyp313a4 (Cytochrome P450 313a4) | DRSC16627 | 72964 | 1.06e5 | – | 2105 | 2710 |
| CG9356 | DRSC16476 | 1.19e5 | 94597 | – | 4666 | 3984 |
| Elk (Eag-like K[+] channel) | DRSC07608 | 1.18e5 | 74146 | – | 4792 | 3285 |
| CG14893 | DRSC15015 | 94241 | 1.63e5 | – | 2793 | 4668 |
| Cyp9c1 (Cytochrome P450 9c1) | DRSC04607 | 96720 | 47094 | – | 3896 | 1861 |
| att-ORFB + DPCoAC | DRSC15556 | 6.37e5 | 62012 | – | 37644 | 1924 |
| Cht8 (Chitinase 8) | DRSC04546 | 1.20e5 | 51635 | – | 3143 | 4486 |
| mys (myospheroid) | DRSC18799 | 60918 | 1.46e5 | – | 2779 | 6717 |

Copied from the list.
Ptp99A (Protein tyrosine phosphatase 99A) [DRSC14319], Renilla reference signal, replicate 1 → 2230
Value for ApepP (Aminopeptidase P) [DRSC01866] in “firefly Hh reporter signal, replicate 2”: 61826
Result for CG14893 [DRSC15015] under “firefly Hh reporter signal, replicate 2”: 1.63e5
Under “firefly Hh reporter signal, replicate 1”, mio (missing oocyte) [DRSC00692] has 1.39e5
